Test results from the supplement of paper PMC7646827.
Counter-ions that a name gives are not always drawn. Single values are uncertain, as repeats are few or missing.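 All cells are established human bladder cancer lines, one derived from a patient-derived xenograft. A luminescent ATP assay measured viability as percent inhibition relative to vehicle across seven dilutions. The paper rates scores above 59 very active, 30–59 active, 21–29 semi-active, 9–20 low active, below 9 inactive.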

Experiments:
Assay in all cases: drug sensitivity score DSS3 (score 0-100); higher = more sensitive; extreme values may be limits of the assay
Conditions in all cases: culture: 3D, ultra-low attachment; treatment time: 5 days
UM-UC-15 = system: UM-UC-15
UM-UC-9 = system: UM-UC-9
T-24 = system: T-24
5637 = system: 5637
UM-UC-14 = system: UM-UC-14
SCaBER = system: SCaBER
UM-UC-17 = system: UM-UC-17
UM-UC-6 = system: UM-UC-6
SW780 = system: SW780
UM-UC-12 = system: UM-UC-12
J82 = system: J82
UM-UC-3 = system: UM-UC-3
TCCSUP = system: TCCSUP
BC8149 = system: BC8149
UM-UC-5 = system: UM-UC-5
UM-UC-1 = system: UM-UC-1
UM-UC-18 = system: UM-UC-18

Row | Compound | drug sensitivity score DSS3 (UM-UC-15) | drug sensitivity score DSS3 (UM-UC-9) | drug sensitivity score DSS3 (T-24) | drug sensitivity score DSS3 5637 | drug sensitivity score DSS3 (UM-UC-14) | drug sensitivity score DSS3 (SCaBER) | drug sensitivity score DSS3 (UM-UC-17) | drug sensitivity score DSS3 (UM-UC-6) | drug sensitivity score DSS3 (SW780) | drug sensitivity score DSS3 (UM-UC-12) | drug sensitivity score DSS3 (J82) | drug sensitivity score DSS3 (UM-UC-3) | drug sensitivity score DSS3 (TCCSUP) | drug sensitivity score DSS3 (BC8149) | drug sensitivity score DSS3 (UM-UC-5) | drug sensitivity score DSS3 (UM-UC-1) | drug sensitivity score DSS3 (UM-UC-18)
1 | O=C(O)C(Cc1c[nH]c2ccccc12)N1C(=O)c2ccccc2C1=O (stereo not given) [RG108] (max dose 10000 nM) | 0 | 0 | 0 | 0 | 0.743 | 0 | 0 | 0 | 0 | 0 | 0 | 1.18 | 0.75 | 2.62 | 0 | 1.53 | 0
2 | Cc1nc2ccc(-n3ncc(C(=O)c4cc5ccccc5[nH]4)c3N)cc2[nH]1 (max dose 10000 nM) | 14.1 | 2.95 | 6.18 | 21.3 | 13.9 | 23.5 | 16.3 | 4.64 | 0 | 19.1 | 7.52 | 5.07 | 44 | 38 | 4.67 | 2.43 | 20.7
3 | c1cncc(CN2CCC(n3ncc4c(N5CCOCC5)nc(-c5ccc6[nH]ccc6c5)nc43)CC2)c1 [WAY-600] (max dose 10000 nM) | 0 | 0.0231 | 0 | 0 | 0.899 | 0.14 | 0 | 0 | 0 | 0 | 0 | 0.117 | 2.78 | 2.74 | 5.67 | 1.73 | 2.09
4 | CC[C@]1(O)C[C@H]2CN(CCc3c([nH]c4ccccc34)[C@@](C(=O)OC)(c3cc4c(cc3OC)N(C=O)[C@H]3[C@@](O)(C(=O)OC)[C@H](OC(C)=O)[C@]5(CC)C=CCN6CC[C@]43[C@@H]65)C2)C1 [Vincristine sulfate] (max dose 10000 nM) | 0 | 4.67 | 0 | 28.7 | 17.1 | 4.97 | 30 | 21.9 | 15.6 | 7.63 | 0 | 16 | 31.4 | 13.4 | 0 | 11.9 | 0
5 | COc1cc(F)c(F)c(Nc2ccc(I)cc2F)c1NS(=O)(=O)C1(C[C@H](O)CO)CC1 [Refametinib (RDEA119, Bay 86-9766)] (max dose 10000 nM) | 10.6 | 0 | 4.57 | 9 | 0 | 20.2 | 11.4 | 0.138 | 0.244 | 0 | 0 | 16.9 | 9.29 | 1.79 | 7.48 | 1.21 | 0
6 | COc1ccc(/C=C\c2cc(OC)c(OC)c(OC)c2)cc1O [Combretastatin A4] (max dose 10000 nM) | 0 | 5.29 | 0 | 40.3 | 7.92 | 0 | 19.6 | 5.92 | 6.9e-05 | 34.7 | 0 | 30 | 29.1 | 33.9 | 0 | 15.8 | 0
7 | COc1ccccc1-c1cc(Nc2cccc(CS(N)(=O)=O)c2)ncn1 (max dose 10000 nM) | 0 | 0 | 0 | 0 | 2.79 | 0 | 2.15 | 2.01 | 0 | 0 | 0 | 1.01 | 8.51 | 0 | 0.0889 | 3.49 | 0
8 | CN(C[C@@H]1COCCO1)S(=O)(=O)Nc1ccc2ccc3ncc(-c4cnn(C)c4)cc3c(=O)c2c1 [MK-2461] (max dose 10000 nM) | 2.1 | 2.7 | 0 | 7.54 | 6.52 | 4.05 | 8.4 | 0 | 6.97 | 7.76 | 2.96 | 1.58 | 4 | 5.73 | 0.132 | 3.15 | 2.16
9 | Cc1ccc(NC(=O)c2cccc(C(C)(C)C#N)c2)cc1Nc1ccc2ncn(C)c(=O)c2c1 [AZ 628] (max dose 10000 nM) | 0.561 | 3.02 | 1.56 | 14 | 0.308 | 10.9 | 0 | 0 | 6.16 | 3.23 | 0 | 7.34 | 0.673 | 6.11 | 19.5 | 0.0936 | 2.79
10 | C[C@]12CCCN1CC1=NNC(=O)c3cc(F)cc4[nH]c2c1c34 [Pamiparib (BGB-290)] (max dose 10000 nM) | 12.4 | 0 | 0.0345 | 0 | 0 | 0 | 0 | 0 | 0 | 0 | 0.031 | 0 | 0.435 | 0 | 0 | 0 | 0
11 | COC(=O)Nc1nc2cc(C(=O)c3cccs3)ccc2[nH]1 [Nocodazole] (max dose 10000 nM) | 0 | 3.84 | 0.334 | 19.8 | 13 | 0.124 | 24.2 | 17.5 | 9.24 | 4.63 | 0 | 11.3 | 21.6 | 7.52 | 0 | 13.9 | 0
12 | CCN(CC)CCCC(C)Nc1nc(C)cc(Nc2ccc3nc(C)cc(N)c3c2)n1 (stereo not given) (max dose 10000 nM) | 0 | 0.063 | 0 | 0.0829 | 0 | 0 | 0 | 0.327 | 0 | 0 | 0 | 0 | 1.61 | 0.033 | 0.000524 | 0 | 1.24
13 | Cc1ccc(-n2nc(C(C)(C)C)cc2NC(=O)Nc2ccc(OCCN3CCOCC3)c3ccccc23)cc1 [BIRB 796 (Doramapimod)] (max dose 10000 nM) | 0 | 0 | 0 | 0 | 0 | 0.102 | 0 | 0.336 | 0.782 | 0 | 0 | 0 | 0.343 | 0.942 | 0.122 | 0 | 0
14 | CC(C)Cc1ccc([C@@H](C)C(=O)NS(C)(=O)=O)cc1 [Reparixin (Repertaxin)] (max dose 10000 nM) | 16 | 0 | 0 | 0 | 0 | 0 | 0 | 0 | 0 | 0 | 0 | 0 | 0 | 0 | 0 | 0 | 0
15 | Nc1[nH]nc2nnc(-c3c(-c4ccccc4)nn4ccccc34)cc12 (max dose 10000 nM) | 0 | 0.551 | 0 | 1.83 | 25.3 | 0 | 15.6 | 11.1 | 0 | 0.306 | 0 | 4.35 | 37.5 | 4.45 | 0 | 23.5 | 0
16 | COc1c(C)c2c(c(O)c1C/C=C(\C)CCC(=O)O)C(=O)OC2 [Mycophenolic acid] (max dose 10000 nM) | 0 | 1.41 | 0 | 2.25 | 0.00402 | 0 | 0 | 0 | 0 | 0 | 0 | 0.58 | 1.16 | 0.479 | 0 | 1.59 | 2.69
17 | Nc1ncn([C@H]2C[C@H](O)[C@@H](CO)O2)c(=O)n1 [Decitabine] (max dose 10000 nM) | 0 | 0 | 0.529 | 1.34 | 1.16 | 0 | 2.51 | 0 | 0 | 0 | 0.649 | 0 | 7.07 | 0 | 0 | 0.843 | 0
18 | O=NN(CCCl)C(=O)NC1CCCCC1 [Lomustine] (max dose 10000 nM) | 0 | 0.707 | 0 | 12.7 | 0 | 0 | 3.93 | 0.0239 | 0.00237 | 0 | 0 | 0.00699 | 10.3 | 2.18 | 0 | 4.58 | 1.04
19 | Cc1sc2c(c1C)C(c1ccc(Cl)cc1)=N[C@@H](CC(=O)Nc1ccc(O)cc1)c1nnc(C)n1-2 [OTX015] (max dose 10000 nM) | 1.32 | 3.55 | 0.433 | 6.2 | 1.36 | 0 | 8.6 | 0 | 0 | 13.3 | 0.0985 | 0.436 | 11.8 | 7.18 | 1.3 | 0 | 0
20 | Clc1ccccc1CN1CCc2sccc2C1 [Ticlopidine HCl] (max dose 10000 nM) | 0 | 0 | 0 | 0 | 0 | 0 | 0 | 0 | 0 | 0 | 0 | 0 | 0 | 0 | 0.0692 | 0 | 0

Record cards (already shown). Values in the order: drug sensitivity score DSS3 (UM-UC-15)	drug sensitivity score DSS3 (UM-UC-9)	drug sensitivity score DSS3 (T-24)	drug sensitivity score DSS3 5637	drug sensitivity score DSS3 (UM-UC-14)	drug sensitivity score DSS3 (SCaBER)	drug sensitivity score DSS3 (UM-UC-17)	drug sensitivity score DSS3 (UM-UC-6)	drug sensitivity score DSS3 (SW780)	drug sensitivity score DSS3 (UM-UC-12)	drug sensitivity score DSS3 (J82)	drug sensitivity score DSS3 (UM-UC-3)	drug sensitivity score DSS3 (TCCSUP)	drug sensitivity score DSS3 (BC8149)	drug sensitivity score DSS3 (UM-UC-5)	drug sensitivity score DSS3 (UM-UC-1)	drug sensitivity score DSS3 (UM-UC-18)
COc1c(C)c2c(c(O)c1C/C=C(\C)CCC(=O)O)C(=O)OC2 [Mycophenolic acid] (max dose 10000 nM) as listed: 0	1.41	0	2.25	0.00402	0	0	0	0	0	0	0.58	1.16	0.479	0	1.59	2.69
CC[C@]1(O)C[C@H]2CN(CCc3c([nH]c4ccccc34)[C@@](C(=O)OC)(c3cc4c(cc3OC)N(C=O)[C@H]3[C@@](O)(C(=O)OC)[C@H](OC(C)=O)[C@]5(CC)C=CCN6CC[C@]43[C@@H]65)C2)C1 [Vincristine sulfate] (max dose 10000 nM) as listed: 0	4.67	0	28.7	17.1	4.97	30	21.9	15.6	7.63	0	16	31.4	13.4	0	11.9	0
